# Results taken from patent publication US11053205B2, “Phenazine derivatives as antimicrobial agents” (University of Florida Research Foundation, Incorporated, priority 2017, dated 2021).
# Tests used:
# VRE 700221 = assay: MIC, broth microdilution (CLSI)
# MRSA BAA-1707 = assay: Metal(II)-cation co-treatment MIC assay; format: cell-based, Staphylococcus aureus; conditions: zinc(II) at 200 μM
# UV-Vis metal(II) binding [1] = format: physicochemical; set-up: key: UV-Vis results are reported as “Binding Y/N” for HPs; UV-Vis results are reported as “Binding Y/N” for HPs
# UV-Vis metal(II) binding [2] = format: physicochemical; set-up: key: UV-Vis results are reported as “Binding Y/N” for HPs; UV-Vis results are reported as “Binding Y/N” for HPs; remark: listed apart in the source
# UV-Vis metal(II) binding [3] = format: physicochemical; set-up: key: UV-Vis results are reported as “Binding Y/N” for HPs; UV-Vis results are reported as “Binding Y/N” for HPs; remark: listed apart in the source
# UV-Vis metal(II) binding [4] = format: physicochemical; set-up: key: UV-Vis results are reported as “Binding Y/N” for HPs; UV-Vis results are reported as “Binding Y/N” for HPs; remark: listed apart in the source
# HeLa cells = assay: LDH release assay for HeLa cytotoxicity; conditions: cytotoxicity IC50 divided by the MIC against MRSA-1707
compound,measurement,setting,value
Oc1c(Br)cc(Br)c2nc3ccc(Cl)cc3nc12 [HP 1-22],fold increase in antibacterial activities compared to HP 1,VRE 700221,4 fold
COCCOCCOCCOCCOC(=O)Oc1c(Br)cc(Br)c2nc3c(C)cccc3nc12 [HP 1-25],fold reduction in MIC with zinc(II) co-treatment,MRSA BAA-1707,67 fold
"Oc1cccc2cccnc12 [8-OHQ, 8-hydroxyquinoline, reference compound]",Magnesium(II) Binding Y/N,UV-Vis metal(II) binding [1],N
same,Iron(II) Binding Y/N,UV-Vis metal(II) binding [2],Y
same,Zinc(II) Binding Y/N,UV-Vis metal(II) binding [3],Y
same,Copper(II) Binding Y/N,UV-Vis metal(II) binding [4],Y
CCc1cccc2nc3c(O)c(Br)cc(Br)c3nc12 [HP 1-18],fold increase in antibacterial activities compared to HP 1,VRE 700221,2 fold
Cc1ccc2nc3c(O)ccc(Br)c3nc2c1 [Compound 66A],Selectivity Index,HeLa cells,>8
Cc1cc(C)c2nc3c(Br)ccc(O)c3nc2c1 [Compound 68A],Selectivity Index,HeLa cells,>21
